Measured data: PubChem BioAssay AID602196 (INSERM, 2012)
The deposit covers about 23,000 reagents; below is a random part of them. 455 of them (2%) were called active. 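Active includes both protection and sensitisation; some change values fall well beyond the stated -50 to +50 range.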 Further read-outs or replicates are left out here. Reagent sequences are not shown. Not given: the amount of reagent.

- Purpose: 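Modifiers of cisplatin sensitivity in A549 cells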
- Cells: human A549 lung cancer cells
- Knock-down reagent: siRNA pair against human genes
- Time to read-out: 48 h transfection before cisplatin; time from cisplatin to read-out not stated
- Challenge: cisplatin at a dose killing half of control-siRNA cells; exact dose and duration not given
- Read-out: 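Shift in cisplatin death relative to control siRNA, from -50 (all cells die) to +50 (no cells die); siRNAs harmful on their own scored 0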
- Scale: two-siRNA summed score (-2 to +2): higher = both siRNAs protect from cisplatin killing; -2 means both sensitise; mean protection from cisplatin (shift in death) and protection from cisplatin (shift in death), siRNA C: higher = protection from cisplatin killing
- Hit rule: 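Each siRNA scores 0 if harmful alone by LDH or WST-1, otherwise +1 if it reduces and -1 if it increases cisplatin killing; a gene is active when both siRNAs agree (sum +2 or -2)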
- Calls: active = both siRNAs shift cisplatin killing the same way; inactive = no consistent shift, or siRNA harmful alone

gene symbol | two-siRNA summed score (-2 to +2) | mean protection from cisplatin (shift in death) (%) | protection from cisplatin (shift in death), siRNA C (%) | activity call
L2HGDH | -1 | -9.8 | -0.4 | inactive
KCNMB2 | 1 | 3.3 | -5.1 | inactive
LOC338611 | 1 | 15.5 | 15 | inactive
OTULINL | 0 | -4.3 | -2.7 | inactive
LHFPL2 | 1 | 10.4 | 19.4 | inactive
LATS2 | 1 | 16.7 | 28 | inactive
HOXA2 | -1 | -0.1 | 17.2 | inactive
CPAMD8P1 | 0 | 7.5 | 19.5 | inactive
IFI30 | 0 | -3.4 | -6 | inactive
CCDC14 | 0 | -1.2 | 5.1 | inactive
TUSC3 | 1 | 17.8 | 16.5 | inactive
TMEM186 | 0 | -0.6 | 13.4 | inactive
UPP1 | 0 | -0.2 | 12.8 | inactive
ID1 | 0 | 2.9 | 5 | inactive
NFKB1 | 0 | 4 | -5.5 | inactive
LOC441098 (retired record) | 1 | 8.1 | 13.4 | inactive
DDX41 | 0 | -19.6 | 11.2 | inactive
ABLIM3 | -1 | 4.2 | 17 | inactive
KRT20 | 1 | 6.4 | 14.4 | inactive
SAAL1 | 0 | -3.5 | -3.6 | inactive
GPR143 | 0 | -9.3 | -9.4 | inactive
C2 | -1 | -18 | -9.2 | inactive
IGFN1 | 0 | 6.4 | 10.6 | inactive

A portion taken from the entries so far, as a working copy:
gene symbol | two-siRNA summed score (-2 to +2) | mean protection from cisplatin (shift in death) (%) | protection from cisplatin (shift in death), siRNA C (%) | activity call
C2 | -1 | -18 | -9.2 | inactive
IGFN1 | 0 | 6.4 | 10.6 | inactive
